Structures can show the parent of a compound that is named as a salt. The list shows a part of the results. Hit calls seldom repeat between salt and free forms of one compound.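 In K562 cells expressing nanoluciferase-fused kinases, luminescence was recorded at 4 h intervals between 2 and 18 h, normalized as percent of control with DMSO at 100% and a positive control at 0%. A significant (2 sigma) signal drop marks a time point as decreased. The authors' rule for a hit is not shown and takes in more than the number of time points.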
Legend:
Assay in all cases: kinase-Nluc reporter destabilization hit call (1 = scored as downregulated) (binary); higher = compound decreases kinase abundance
Conditions in all cases: K562; 2-18 h
ERN1 = ERN1 (UniProt O75460)
FGFR1 = FGFR1 (UniProt P11362)
FGFR2 = FGFR2 (UniProt P21802)
FGFR3 = FGFR3 (UniProt P22607)
FGR = FGR (UniProt P09769)
FLT3 = FLT3 (UniProt P36888)
FYN = FYN (UniProt P06241)
GSK3A = GSK3A (UniProt P49840)
HER2 = HER2 (UniProt P04626)
INSRR = INSRR (UniProt P14616)
IRAK3 = IRAK3 (UniProt Q9Y616)
JAK1 = JAK1 (UniProt P23458)
LCK = LCK (UniProt P06239)
LIMK1 = LIMK1 (UniProt P53667)
LIMK2 = LIMK2 (UniProt P53671)
LMTK2 = LMTK2 (UniProt Q8IWU2)
LYN = LYN (UniProt P07948)
MAP2K1 = MAP2K1 (UniProt Q02750)
MAP2K2 = MAP2K2 (UniProt P36507)
MAP4K2 = MAP4K2 (UniProt Q12851)

Protein sequences, listed by entry. Tags and fused reporters are not part of them. Lines headed by an entry give the natural chain unless they say otherwise; changes in a name come on top.
UniProt O75460: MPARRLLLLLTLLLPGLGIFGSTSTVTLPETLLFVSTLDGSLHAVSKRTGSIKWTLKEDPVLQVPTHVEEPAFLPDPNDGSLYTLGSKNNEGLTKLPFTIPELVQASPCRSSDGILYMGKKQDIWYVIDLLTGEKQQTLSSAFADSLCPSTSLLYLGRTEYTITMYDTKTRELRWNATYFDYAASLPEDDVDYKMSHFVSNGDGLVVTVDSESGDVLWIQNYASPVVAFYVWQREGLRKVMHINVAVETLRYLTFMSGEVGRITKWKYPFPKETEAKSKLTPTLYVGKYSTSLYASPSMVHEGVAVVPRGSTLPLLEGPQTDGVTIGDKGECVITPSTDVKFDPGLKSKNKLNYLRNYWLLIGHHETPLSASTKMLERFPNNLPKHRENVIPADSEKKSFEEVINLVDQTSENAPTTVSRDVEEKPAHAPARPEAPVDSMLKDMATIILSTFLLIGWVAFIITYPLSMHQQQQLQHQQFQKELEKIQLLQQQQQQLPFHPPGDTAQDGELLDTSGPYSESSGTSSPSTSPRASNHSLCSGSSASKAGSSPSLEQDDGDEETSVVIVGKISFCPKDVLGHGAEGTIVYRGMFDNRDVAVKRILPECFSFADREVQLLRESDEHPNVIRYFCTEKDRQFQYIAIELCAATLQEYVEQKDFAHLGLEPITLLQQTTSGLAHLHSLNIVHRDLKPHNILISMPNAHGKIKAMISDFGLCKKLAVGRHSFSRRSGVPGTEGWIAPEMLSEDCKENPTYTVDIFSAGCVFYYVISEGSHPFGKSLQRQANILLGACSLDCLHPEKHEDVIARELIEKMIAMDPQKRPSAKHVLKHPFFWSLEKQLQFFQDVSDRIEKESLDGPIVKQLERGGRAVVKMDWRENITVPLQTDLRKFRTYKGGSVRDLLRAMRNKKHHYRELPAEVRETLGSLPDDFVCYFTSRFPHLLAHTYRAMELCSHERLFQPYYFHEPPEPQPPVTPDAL
UniProt P21802, whole entry, looked up: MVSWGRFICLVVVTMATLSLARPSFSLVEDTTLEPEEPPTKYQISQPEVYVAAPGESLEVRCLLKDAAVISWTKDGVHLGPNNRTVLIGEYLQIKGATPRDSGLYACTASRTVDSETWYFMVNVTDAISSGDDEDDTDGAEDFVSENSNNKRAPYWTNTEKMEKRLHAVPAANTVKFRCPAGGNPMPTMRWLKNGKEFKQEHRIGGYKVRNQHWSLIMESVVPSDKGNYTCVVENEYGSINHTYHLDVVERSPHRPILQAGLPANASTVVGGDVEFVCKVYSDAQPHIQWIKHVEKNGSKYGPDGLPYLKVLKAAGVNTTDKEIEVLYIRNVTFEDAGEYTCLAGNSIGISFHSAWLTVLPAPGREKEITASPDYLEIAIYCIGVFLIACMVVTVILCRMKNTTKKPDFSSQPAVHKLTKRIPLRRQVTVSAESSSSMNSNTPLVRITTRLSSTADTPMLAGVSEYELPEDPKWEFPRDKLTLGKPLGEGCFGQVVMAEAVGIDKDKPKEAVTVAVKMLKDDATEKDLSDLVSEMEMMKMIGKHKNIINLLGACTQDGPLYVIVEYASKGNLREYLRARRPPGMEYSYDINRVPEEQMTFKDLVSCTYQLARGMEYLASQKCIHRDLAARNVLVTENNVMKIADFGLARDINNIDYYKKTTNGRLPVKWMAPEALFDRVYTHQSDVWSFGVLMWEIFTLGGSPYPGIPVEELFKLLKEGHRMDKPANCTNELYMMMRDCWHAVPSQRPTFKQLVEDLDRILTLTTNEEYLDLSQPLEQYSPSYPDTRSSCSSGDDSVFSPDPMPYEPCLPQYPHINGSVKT
UniProt P36888, whole entry: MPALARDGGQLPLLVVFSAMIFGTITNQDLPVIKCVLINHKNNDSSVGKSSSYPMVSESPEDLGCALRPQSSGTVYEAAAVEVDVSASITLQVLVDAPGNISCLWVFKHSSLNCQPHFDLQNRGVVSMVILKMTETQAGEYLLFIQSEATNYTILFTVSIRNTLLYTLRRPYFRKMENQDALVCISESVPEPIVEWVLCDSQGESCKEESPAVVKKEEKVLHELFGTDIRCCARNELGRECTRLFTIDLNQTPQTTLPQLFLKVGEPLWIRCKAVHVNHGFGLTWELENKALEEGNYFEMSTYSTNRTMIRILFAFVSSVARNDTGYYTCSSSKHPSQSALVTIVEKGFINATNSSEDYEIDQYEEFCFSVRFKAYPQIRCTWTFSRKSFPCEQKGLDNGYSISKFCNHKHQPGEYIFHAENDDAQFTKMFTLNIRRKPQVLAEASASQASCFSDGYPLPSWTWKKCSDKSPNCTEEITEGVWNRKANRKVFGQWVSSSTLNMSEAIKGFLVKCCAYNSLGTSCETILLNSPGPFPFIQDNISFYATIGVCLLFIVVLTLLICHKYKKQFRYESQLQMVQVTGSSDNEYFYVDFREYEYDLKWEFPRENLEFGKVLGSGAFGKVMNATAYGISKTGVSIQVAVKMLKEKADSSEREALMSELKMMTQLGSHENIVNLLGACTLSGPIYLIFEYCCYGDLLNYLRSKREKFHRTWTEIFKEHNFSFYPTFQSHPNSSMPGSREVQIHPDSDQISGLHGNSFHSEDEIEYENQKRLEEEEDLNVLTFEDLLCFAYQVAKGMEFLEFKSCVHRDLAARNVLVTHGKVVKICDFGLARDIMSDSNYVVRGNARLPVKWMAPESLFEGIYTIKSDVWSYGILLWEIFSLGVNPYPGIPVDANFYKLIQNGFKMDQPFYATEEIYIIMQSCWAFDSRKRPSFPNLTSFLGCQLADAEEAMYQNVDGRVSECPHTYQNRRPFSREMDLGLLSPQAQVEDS
UniProt P06241, whole entry, looked up: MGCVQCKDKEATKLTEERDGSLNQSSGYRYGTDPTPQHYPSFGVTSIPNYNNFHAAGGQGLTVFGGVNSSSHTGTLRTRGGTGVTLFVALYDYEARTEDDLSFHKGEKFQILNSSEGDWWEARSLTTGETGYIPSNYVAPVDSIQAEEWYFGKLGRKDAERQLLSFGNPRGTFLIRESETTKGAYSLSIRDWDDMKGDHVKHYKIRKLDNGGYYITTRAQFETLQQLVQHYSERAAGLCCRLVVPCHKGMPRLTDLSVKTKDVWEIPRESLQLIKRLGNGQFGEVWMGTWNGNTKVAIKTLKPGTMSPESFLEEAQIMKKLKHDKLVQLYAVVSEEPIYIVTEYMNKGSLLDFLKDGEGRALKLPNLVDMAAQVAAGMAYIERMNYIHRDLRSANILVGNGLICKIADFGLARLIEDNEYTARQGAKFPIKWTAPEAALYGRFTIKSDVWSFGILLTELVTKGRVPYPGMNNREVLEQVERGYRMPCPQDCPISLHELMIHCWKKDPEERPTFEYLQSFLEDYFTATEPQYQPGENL
UniProt P49840: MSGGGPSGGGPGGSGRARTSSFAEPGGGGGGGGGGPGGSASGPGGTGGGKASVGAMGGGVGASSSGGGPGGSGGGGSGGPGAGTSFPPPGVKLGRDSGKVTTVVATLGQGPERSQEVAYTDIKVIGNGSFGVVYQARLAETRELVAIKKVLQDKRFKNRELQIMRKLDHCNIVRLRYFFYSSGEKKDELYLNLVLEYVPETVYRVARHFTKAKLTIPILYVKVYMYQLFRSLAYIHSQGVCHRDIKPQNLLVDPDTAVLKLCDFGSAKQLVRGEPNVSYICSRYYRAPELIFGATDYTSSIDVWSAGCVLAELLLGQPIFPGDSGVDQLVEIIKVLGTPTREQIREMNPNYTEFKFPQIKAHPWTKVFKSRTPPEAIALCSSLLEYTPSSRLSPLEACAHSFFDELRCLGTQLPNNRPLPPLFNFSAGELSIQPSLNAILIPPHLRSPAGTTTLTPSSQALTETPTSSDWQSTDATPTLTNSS
UniProt P14616: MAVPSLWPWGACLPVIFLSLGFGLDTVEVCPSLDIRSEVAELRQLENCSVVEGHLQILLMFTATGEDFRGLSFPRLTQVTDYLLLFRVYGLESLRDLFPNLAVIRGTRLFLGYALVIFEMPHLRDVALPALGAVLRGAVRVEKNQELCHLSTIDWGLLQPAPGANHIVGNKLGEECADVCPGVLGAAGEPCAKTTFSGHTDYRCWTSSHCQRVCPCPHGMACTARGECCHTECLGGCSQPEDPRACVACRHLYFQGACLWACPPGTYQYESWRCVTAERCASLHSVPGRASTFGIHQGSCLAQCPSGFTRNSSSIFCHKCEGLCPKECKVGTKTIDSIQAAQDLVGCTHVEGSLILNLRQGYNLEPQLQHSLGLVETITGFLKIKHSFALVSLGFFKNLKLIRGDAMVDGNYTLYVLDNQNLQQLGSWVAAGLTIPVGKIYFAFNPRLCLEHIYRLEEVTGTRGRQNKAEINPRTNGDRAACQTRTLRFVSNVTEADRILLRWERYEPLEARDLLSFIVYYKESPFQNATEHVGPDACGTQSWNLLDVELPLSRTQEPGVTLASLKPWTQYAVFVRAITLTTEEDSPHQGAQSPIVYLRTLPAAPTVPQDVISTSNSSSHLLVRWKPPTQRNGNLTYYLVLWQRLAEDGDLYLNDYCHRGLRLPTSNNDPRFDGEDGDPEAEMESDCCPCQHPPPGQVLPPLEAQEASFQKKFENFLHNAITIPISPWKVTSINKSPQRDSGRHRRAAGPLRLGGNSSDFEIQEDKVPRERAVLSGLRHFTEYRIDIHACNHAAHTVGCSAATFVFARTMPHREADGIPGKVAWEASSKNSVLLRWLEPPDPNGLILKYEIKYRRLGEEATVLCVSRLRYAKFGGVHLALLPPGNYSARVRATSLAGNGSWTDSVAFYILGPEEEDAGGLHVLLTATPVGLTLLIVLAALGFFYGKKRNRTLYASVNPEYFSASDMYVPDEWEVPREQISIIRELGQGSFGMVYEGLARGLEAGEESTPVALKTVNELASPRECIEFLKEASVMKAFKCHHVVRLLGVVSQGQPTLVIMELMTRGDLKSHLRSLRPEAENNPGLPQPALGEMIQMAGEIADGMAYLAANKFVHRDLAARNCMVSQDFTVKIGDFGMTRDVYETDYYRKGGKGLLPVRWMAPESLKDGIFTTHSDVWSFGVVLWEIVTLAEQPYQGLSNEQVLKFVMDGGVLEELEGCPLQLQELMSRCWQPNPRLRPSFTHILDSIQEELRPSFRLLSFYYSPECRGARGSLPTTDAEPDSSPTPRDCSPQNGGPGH
UniProt Q9Y616: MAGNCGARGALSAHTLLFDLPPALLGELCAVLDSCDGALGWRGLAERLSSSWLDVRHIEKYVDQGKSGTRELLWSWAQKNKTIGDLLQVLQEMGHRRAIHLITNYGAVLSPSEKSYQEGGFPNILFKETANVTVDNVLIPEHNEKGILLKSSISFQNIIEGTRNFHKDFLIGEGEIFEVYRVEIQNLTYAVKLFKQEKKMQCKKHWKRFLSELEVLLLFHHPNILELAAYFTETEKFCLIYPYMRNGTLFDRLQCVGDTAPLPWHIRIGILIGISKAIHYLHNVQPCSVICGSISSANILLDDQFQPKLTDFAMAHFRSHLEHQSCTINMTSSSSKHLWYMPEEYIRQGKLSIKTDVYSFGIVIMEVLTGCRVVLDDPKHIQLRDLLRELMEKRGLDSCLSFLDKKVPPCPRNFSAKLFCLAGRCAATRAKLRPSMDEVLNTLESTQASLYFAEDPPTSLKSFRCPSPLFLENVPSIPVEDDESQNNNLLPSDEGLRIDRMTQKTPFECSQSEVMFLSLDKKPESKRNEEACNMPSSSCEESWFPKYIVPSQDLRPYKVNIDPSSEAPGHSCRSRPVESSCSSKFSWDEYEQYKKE
UniProt P07948: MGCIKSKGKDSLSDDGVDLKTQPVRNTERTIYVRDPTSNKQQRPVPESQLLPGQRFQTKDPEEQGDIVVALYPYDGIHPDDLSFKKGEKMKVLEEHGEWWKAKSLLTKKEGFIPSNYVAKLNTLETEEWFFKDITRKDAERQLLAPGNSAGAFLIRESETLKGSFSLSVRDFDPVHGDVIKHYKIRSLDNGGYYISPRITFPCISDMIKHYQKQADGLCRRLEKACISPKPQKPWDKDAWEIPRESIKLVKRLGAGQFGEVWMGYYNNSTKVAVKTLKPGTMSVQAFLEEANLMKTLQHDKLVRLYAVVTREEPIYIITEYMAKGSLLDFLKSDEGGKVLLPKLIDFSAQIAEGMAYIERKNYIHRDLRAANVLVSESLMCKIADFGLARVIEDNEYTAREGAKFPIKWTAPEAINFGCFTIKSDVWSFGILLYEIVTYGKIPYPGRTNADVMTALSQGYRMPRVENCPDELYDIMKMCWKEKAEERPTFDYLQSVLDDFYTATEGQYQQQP

| Structure (SMILES) | kinase-Nluc reporter destabilization hit call (ERN1) | kinase-Nluc reporter destabilization hit call (FGFR1) | kinase-Nluc reporter destabilization hit call (FGFR2) | kinase-Nluc reporter destabilization hit call (FGFR3) | kinase-Nluc reporter destabilization hit call (FGR) | kinase-Nluc reporter destabilization hit call (FLT3) | kinase-Nluc reporter destabilization hit call (FYN) | kinase-Nluc reporter destabilization hit call (GSK3A) | kinase-Nluc reporter destabilization hit call (HER2) | kinase-Nluc reporter destabilization hit call (INSRR) | kinase-Nluc reporter destabilization hit call (IRAK3) | kinase-Nluc reporter destabilization hit call (JAK1) | kinase-Nluc reporter destabilization hit call (LCK) | kinase-Nluc reporter destabilization hit call (LIMK1) | kinase-Nluc reporter destabilization hit call (LIMK2) | kinase-Nluc reporter destabilization hit call (LMTK2) | kinase-Nluc reporter destabilization hit call (LYN) | kinase-Nluc reporter destabilization hit call (MAP2K1) | kinase-Nluc reporter destabilization hit call (MAP2K2) | kinase-Nluc reporter destabilization hit call (MAP4K2) |
| --- | --- | --- | --- | --- | --- | --- | --- | --- | --- | --- | --- | --- | --- | --- | --- | --- | --- | --- | --- | --- |
| CC(C)c1cnn2c(NCc3ccccc3)cc(NCCCCCCN)nc12 [BS-181 (hydrochloride)] (10 µM) | inactive: 0 | inactive: 0 | inactive: 0 | inactive: 0 | inactive: 0 | inactive: 0 | inactive: 0 | inactive: 0 | inactive: 0 | inactive: 0 | inactive: 0 | inactive: 0 | inactive: 0 | inactive: 0 | inactive: 0 | inactive: 0 | inactive: 0 | inactive: 0 | inactive: 0 | inactive: 0 |
| CNC(=O)Nc1cc(Oc2cncc(C)c2)c(-c2ccc(OCC(C)(C)O)nc2)cn1 (2.5 µM) | inactive: 0 | inactive: 0 | inactive: 0 | inactive: 0 | inactive: 0 | inactive: 0 | inactive: 0 | inactive: 0 | inactive: 0 | inactive: 0 | inactive: 0 | inactive: 0 | inactive: 0 | inactive: 0 | inactive: 0 | inactive: 0 | inactive: 0 | inactive: 0 | inactive: 0 | inactive: 0 |
| CC(C)=C/C=C1\O[C@@H]2CC(C)=CC(=O)[C@@H]2[C@]1(C)O [Bisabolangelone] (10 µM) | inactive: 0 | inactive: 0 | inactive: 0 | inactive: 0 | inactive: 0 | inactive: 0 | inactive: 0 | inactive: 0 | inactive: 0 | inactive: 0 | inactive: 0 | inactive: 0 | inactive: 0 | inactive: 0 | inactive: 0 | inactive: 0 | inactive: 0 | inactive: 0 | inactive: 0 | inactive: 0 |
| CCn1c2ccccc2c2cc(Nc3ccnc(NCCCN4CCOCC4)n3)ccc21 (2.5 µM) | inactive: 0 | inactive: 0 | inactive: 0 | inactive: 0 | inactive: 0 | inactive: 0 | inactive: 0 | inactive: 0 | inactive: 0 | inactive: 0 | inactive: 0 | inactive: 0 | inactive: 0 | inactive: 0 | inactive: 0 | inactive: 0 | inactive: 0 | inactive: 0 | inactive: 0 | inactive: 0 |
| Cc1ccc(Nc2c(C(N)=O)cnc3cc(-c4ccncc4)ccc23)cc1C [cFMS Receptor Inhibitor II] (10 µM) | inactive: 0 | inactive: 0 | inactive: 0 | inactive: 0 | inactive: 0 | inactive: 0 | inactive: 0 | inactive: 0 | inactive: 0 | inactive: 0 | inactive: 0 | inactive: 0 | inactive: 0 | inactive: 0 | inactive: 0 | inactive: 0 | inactive: 0 | inactive: 0 | inactive: 0 | inactive: 0 |
| CCc1nc(C(N)=O)c(Nc2ccc(N3CCC(N4CCN(C)CC4)CC3)c(OC)c2)nc1NC1CCC(OC)CC1 (stereo not given) [EML4-ALK kinase inhibitor 1] (2.5 µM) | inactive: 0 | inactive: 0 | inactive: 0 | inactive: 0 | inactive: 0 | inactive: 0 | inactive: 0 | inactive: 0 | inactive: 0 | inactive: 0 | inactive: 0 | inactive: 0 | inactive: 0 | inactive: 0 | inactive: 0 | inactive: 0 | inactive: 0 | inactive: 0 | inactive: 0 | inactive: 0 |
| COc1ccc(C2CC(c3ccc(Cl)cc3)=NN2c2nc(-c3ccncc3)cs2)cc1 (stereo not given) [mTOR inhibitor-8] (10 µM) | inactive: 0 | inactive: 0 | inactive: 0 | inactive: 0 | inactive: 0 | inactive: 0 | inactive: 0 | inactive: 0 | inactive: 0 | inactive: 0 | inactive: 0 | inactive: 0 | inactive: 0 | inactive: 0 | inactive: 0 | inactive: 0 | inactive: 0 | inactive: 0 | inactive: 0 | inactive: 0 |
| COc1ccc(S(=O)(=O)N(CCO)c2ccccc2CN(C)CC=Cc2ccc(Cl)cc2)cc1 (2.5 µM) | inactive: 0 | inactive: 0 | inactive: 0 | inactive: 0 | inactive: 0 | inactive: 0 | inactive: 0 | inactive: 0 | inactive: 0 | inactive: 0 | inactive: 0 | inactive: 0 | inactive: 0 | inactive: 0 | inactive: 0 | inactive: 0 | inactive: 0 | inactive: 0 | inactive: 0 | inactive: 0 |
| CNC(=O)c1nnc(NC(=O)C2CC2)cc1Nc1cccc(-c2ncn(C)n2)c1OC [Deucravacitinib] (10 µM) | inactive: 0 | inactive: 0 | inactive: 0 | inactive: 0 | inactive: 0 | inactive: 0 | inactive: 0 | inactive: 0 | inactive: 0 | inactive: 0 | inactive: 0 | inactive: 0 | inactive: 0 | inactive: 0 | inactive: 0 | inactive: 0 | inactive: 0 | inactive: 0 | inactive: 0 | inactive: 0 |
| C[C@@H]1O[C@@H](O[C@H]2[C@H](OC(=O)[C@]34CCC(C)(C)C[C@H]3C3=CC[C@@H]5[C@@]6(C)C[C@H](O)[C@H](O[C@@H]7O[C@H](CO)[C@@H](O)[C@H](O)[C@H]7O)C(CO)(CO)[C@@H]6CC[C@@]5(C)[C@]3(C)C[C@H]4O)OC[C@H](O)[C@@H]2O)[C@H](O)[C@H](O)[C@H]1O[C@@H]1OC[C@@H](O)[C@H](O[C@@H]2OC[C@](O)(CO)[C@H]2O)[C@H]1O [Platycodin D] (10 µM) | inactive: 0 | inactive: 0 | inactive: 0 | inactive: 0 | inactive: 0 | inactive: 0 | inactive: 0 | inactive: 0 | inactive: 0 | inactive: 0 | inactive: 0 | inactive: 0 | inactive: 0 | inactive: 0 | inactive: 0 | inactive: 0 | inactive: 0 | inactive: 0 | inactive: 0 | inactive: 0 |
| Cn1c(=O)c(Oc2ccc(F)cc2F)cc2cnc(NC(CCO)CCO)nc21 [Pamapimod] (10 µM) | inactive: 0 | inactive: 0 | inactive: 0 | inactive: 0 | inactive: 0 | inactive: 0 | inactive: 0 | inactive: 0 | inactive: 0 | inactive: 0 | inactive: 0 | inactive: 0 | inactive: 0 | inactive: 0 | inactive: 0 | inactive: 0 | inactive: 0 | inactive: 0 | inactive: 0 | inactive: 0 |
| CN(C)C(=O)c1cc2cnc(Nc3ccc(NC(=O)C4(C(=O)Nc5ccc(F)cc5)CC4)cc3)nc2n1C1CCCC1 (2 µM) | inactive: 0 | inactive: 0 | inactive: 0 | inactive: 0 | inactive: 0 | inactive: 0 | inactive: 0 | active: 1 | inactive: 0 | inactive: 0 | inactive: 0 | inactive: 0 | inactive: 0 | inactive: 0 | inactive: 0 | inactive: 0 | inactive: 0 | inactive: 0 | inactive: 0 | inactive: 0 |
| Cn1cc(-c2ccc3nnc(Sc4ccc5nn(C)cc5c4)n3n2)cn1 [c-Met inhibitor 1] (10 µM) | inactive: 0 | inactive: 0 | inactive: 0 | inactive: 0 | inactive: 0 | inactive: 0 | inactive: 0 | inactive: 0 | inactive: 0 | inactive: 0 | inactive: 0 | inactive: 0 | inactive: 0 | inactive: 0 | inactive: 0 | inactive: 0 | inactive: 0 | inactive: 0 | inactive: 0 | inactive: 0 |
| O=C1c2cccc(O)c2C(=O)c2c(O)cccc21 [Danthron] (10 µM) | inactive: 0 | inactive: 0 | inactive: 0 | inactive: 0 | inactive: 0 | inactive: 0 | inactive: 0 | inactive: 0 | inactive: 0 | inactive: 0 | inactive: 0 | inactive: 0 | inactive: 0 | inactive: 0 | inactive: 0 | inactive: 0 | inactive: 0 | inactive: 0 | inactive: 0 | inactive: 0 |
| CC(C)n1nc(C#Cc2ccccc2)c2c(N)ncnc21 (10 µM) | inactive: 0 | inactive: 0 | inactive: 0 | inactive: 0 | inactive: 0 | inactive: 0 | active: 1 | inactive: 0 | inactive: 0 | inactive: 0 | inactive: 0 | inactive: 0 | inactive: 0 | inactive: 0 | inactive: 0 | inactive: 0 | inactive: 0 | inactive: 0 | inactive: 0 | inactive: 0 |
| Cc1nc(NC(=O)N2CCC[C@H]2C(N)=O)sc1-c1csc(C(C)(C)C)n1 (10 µM) | inactive: 0 | inactive: 0 | inactive: 0 | inactive: 0 | inactive: 0 | inactive: 0 | inactive: 0 | inactive: 0 | inactive: 0 | inactive: 0 | inactive: 0 | inactive: 0 | inactive: 0 | inactive: 0 | inactive: 0 | inactive: 0 | inactive: 0 | inactive: 0 | inactive: 0 | inactive: 0 |
| C[C@@H](Nc1cc(F)cc(F)c1)c1cc(C(=O)N(C)C)cc2c(=O)cc(N3CCOCC3)oc12 (10 µM) | inactive: 0 | inactive: 0 | inactive: 0 | inactive: 0 | inactive: 0 | inactive: 0 | inactive: 0 | inactive: 0 | inactive: 0 | inactive: 0 | inactive: 0 | inactive: 0 | inactive: 0 | inactive: 0 | inactive: 0 | inactive: 0 | inactive: 0 | inactive: 0 | inactive: 0 | inactive: 0 |
| O=S(=O)(N=Cc1c(O)ccc2ccccc12)c1cccs1 (10 µM) | inactive: 0 | inactive: 0 | inactive: 0 | inactive: 0 | inactive: 0 | inactive: 0 | inactive: 0 | inactive: 0 | inactive: 0 | inactive: 0 | inactive: 0 | inactive: 0 | inactive: 0 | inactive: 0 | inactive: 0 | inactive: 0 | inactive: 0 | inactive: 0 | inactive: 0 | inactive: 0 |

One compound at a time, as listed above. Order of values: kinase-Nluc reporter destabilization hit call (ERN1)	kinase-Nluc reporter destabilization hit call (FGFR1)	kinase-Nluc reporter destabilization hit call (FGFR2)	kinase-Nluc reporter destabilization hit call (FGFR3)	kinase-Nluc reporter destabilization hit call (FGR)	kinase-Nluc reporter destabilization hit call (FLT3)	kinase-Nluc reporter destabilization hit call (FYN)	kinase-Nluc reporter destabilization hit call (GSK3A)	kinase-Nluc reporter destabilization hit call (HER2)	kinase-Nluc reporter destabilization hit call (INSRR)	kinase-Nluc reporter destabilization hit call (IRAK3)	kinase-Nluc reporter destabilization hit call (JAK1)	kinase-Nluc reporter destabilization hit call (LCK)	kinase-Nluc reporter destabilization hit call (LIMK1)	kinase-Nluc reporter destabilization hit call (LIMK2)	kinase-Nluc reporter destabilization hit call (LMTK2)	kinase-Nluc reporter destabilization hit call (LYN)	kinase-Nluc reporter destabilization hit call (MAP2K1)	kinase-Nluc reporter destabilization hit call (MAP2K2)	kinase-Nluc reporter destabilization hit call (MAP4K2)
`CNC(=O)c1nnc(NC(=O)C2CC2)cc1Nc1cccc(-c2ncn(C)n2)c1OC` [Deucravacitinib] (10 µM) as listed: inactive: 0	inactive: 0	inactive: 0	inactive: 0	inactive: 0	inactive: 0	inactive: 0	inactive: 0	inactive: 0	inactive: 0	inactive: 0	inactive: 0	inactive: 0	inactive: 0	inactive: 0	inactive: 0	inactive: 0	inactive: 0	inactive: 0	inactive: 0
`CN(C)C(=O)c1cc2cnc(Nc3ccc(NC(=O)C4(C(=O)Nc5ccc(F)cc5)CC4)cc3)nc2n1C1CCCC1` (2 µM) as listed: inactive: 0	inactive: 0	inactive: 0	inactive: 0	inactive: 0	inactive: 0	inactive: 0	active: 1	inactive: 0	inactive: 0	inactive: 0	inactive: 0	inactive: 0	inactive: 0	inactive: 0	inactive: 0	inactive: 0	inactive: 0	inactive: 0	inactive: 0

Source: the supplement of paper PMC12823440, “Inhibitors supercharge kinase turnover through native proteolytic circuits” (Nature, 2025)
